Test results from patent US12643924B2, “Cardiac-specific targeting-peptide (CTP), compositions, and uses thereof” (University of Pittsburgh—Of the Commonwealth System of …, priority 2018, dated 2026).

Test: Spectrophotometric fluorescence of the Cy5.5 peptides, used as correction ratio for FACS
Conditions: fluorescence of peptide relative to CTP, controls for differences in fluorescence between peptides

| Substance | Correction Ratio |
| --- | --- |
| AAWHLSSQYSRT (Cy5.5 conjugate; Description of Artificial Sequence: Cardiac Targeting Peptide (CTP-P2A)) [alanine variant of CTP, Cy5.5 conjugated] | 0.95 |
| APAHLSSQYSRT (Cy5.5 conjugate; Description of Artificial Sequence: Cardiac Targeting Peptide (W3A)) [alanine variant of CTP, Cy5.5 conjugated] | 0.91 |
| APWALSSQYSRT (Cy5.5 conjugate; Description of Artificial Sequence: Cardiac Targeting Peptide (H4A)) [alanine variant of CTP, Cy5.5 conjugated] | 0.94 |
| APWHASSQYSRT (Cy5.5 conjugate; Description of Artificial Sequence: Cardiac Targeting Peptide (L5A)) [alanine variant of CTP, Cy5.5 conjugated] | 0.61 |
| APWHLASQYSRT (Cy5.5 conjugate; Description of Artificial Sequence: Cardiac Targeting Peptide (S6A)) [alanine variant of CTP, Cy5.5 conjugated] | 1.26 |
| APWHLSAQYSRT (Cy5.5 conjugate; Description of Artificial Sequence: Cardiac Targeting Peptide (S7A)) [alanine variant of CTP, Cy5.5 conjugated] | 0.95 |
| APWHLSSAYSRT (Cy5.5 conjugate; Description of Artificial Sequence: Cardiac Targeting Peptide (Q8A)) [alanine variant of CTP, Cy5.5 conjugated] | 1.03 |
| APWHLSSQASRT (Cy5.5 conjugate; Description of Artificial Sequence: Cardiac Targeting Peptide (Y9A)) [alanine variant of CTP, Cy5.5 conjugated] | 0.94 |
| APWHLSSQYART (Cy5.5 conjugate; Description of Artificial Sequence: Cardiac Targeting Peptide (S10A)) [alanine variant of CTP, Cy5.5 conjugated] | 0.46 |
| APWHLSSQYSAT (Cy5.5 conjugate; Description of Artificial Sequence: Cardiac Targeting Peptide (R11A)) [alanine variant of CTP, Cy5.5 conjugated] | 0.93 |
| APWHLSSQYSRA (Cy5.5 conjugate; Description of Artificial Sequence: Cardiac Targeting Peptide (T12A)) [alanine variant of CTP, Cy5.5 conjugated] | 1.29 |
| APWHLSSQYSRT (Cy5.5; Description of Artificial Sequence: Cardiac Targeting Peptide) [CTP, 12-amino acid cardiac-specific targeting peptide, tested conjugated to Cy5.5] | 1 |
| SQYSRT (Description of Artificial Sequence: Cardiac Targeting Peptide (CTP-B)) [linear six C-terminal amino acid cardiac-specific targeting peptide] | 0.8318 |
